From PMC5748754, “Elucidating the Skin Delivery of Aglycone and Glycoside Flavonoids: How the Structures Affect Cutaneous Absorption” (Nutrients, 2017) come the findings set out here.

In series [1] the test system is fMLF-activated human neutrophils (elastase release). Kind of series: Elastase release inhibition in fMLF-activated human neutrophils. The following applies: inhibition percentage at 3 µM multiplied by nude mouse skin deposition at 6 mM. Format: cell-based. The text has this: (§1) The protocol was approved by the Institutional Review Board at Chang Gung Memorial Hospital, and written informed consent was obtained from all volunteers (201600500B0C101). Whole blood was withdrawn from healthy volunteers between 20 and 30 years of age. Human neutrophils were isolated using a typical method of dextran sedimentation prior to centrifugation in a Ficoll-Hypaque gradient and hypotonic lysis of erythrocytes. The granulocyte layer was harvested and suspended in calcium-free HBSS at pH 7.4, which was maintained at 4 °C until use.
(§2) The reduction of ferricytochrome c was utilized for measuring the superoxide anion (O2^•–) release from the neutrophils. The human neutrophils (6 × 10^5 cells/mL) were incubated with 0.5 mg/mL ferricytochrome c and 1 mM CaCl2 at 37 °C, and were then treated with flavonoids (3 µM) in DMSO for 10 min. Neutrophils were stimulated by adding 0.1 µM fMLF with cytochalasin B (1 µg/mL). The reduction of ferricytochrome c was monitored by the absorbance at 550 nm using a U3010 ultraviolet/visible spectrophotometer (Hitachi, Tokyo, Japan). The human neutrophils were equilibrated with an elastase substrate (MeO-Suc-Ala-Ala-Pro-Val-p-nitroanilide, 100 µM) at 37 °C for 2 min. Flavonoids at a concentration of 3 µM were added into the neutrophil suspension for 10 min. The cells were activated by fMLF and cytochalasin B for a further 10 min. Elastase release was detected by measuring the change of absorbance at 405 nm.

In series [2] the test system is fMLF-activated human neutrophils (O2•– release). Kind of series: Superoxide anion (O2•–) inhibition in fMLF-activated human neutrophils. In kind it is cell-based. The following applies: inhibition percentage at 3 µM multiplied by nude mouse skin deposition at 6 mM.
Source text: as §1, §2

The compound `O=C(O)[C@H]1O[C@@H](Oc2cc3oc(-c4ccccc4)cc(=O)c3c(O)c2O)[C@H](O)[C@@H](O)[C@@H]1O` [Baicalin] gave a TIelastase in series [1] of 0. Moreover, the TIsuperoxide in series [2] turned out to be 0.53.

`O=c1cc(-c2ccccc2)oc2cc(O)c(O)c(O)c12` [Baicalein] displayed a TIelastase in series [1] of 0.41. Moreover, the TIsuperoxide in series [2] was 2.60.

`C[C@@H]1O[C@@H](OC[C@H]2O[C@@H](Oc3c(-c4ccc(O)c(O)c4)oc4cc(O)cc(O)c4c3=O)[C@H](O)[C@@H](O)[C@@H]2O)[C@H](O)[C@H](O)[C@H]1O` [Rutin] yielded a TIelastase in series [1] of 0.15. This compound also gave a TIsuperoxide in series [2] of 0.39.

Take `O=c1c(O)c(-c2cc(O)c(O)c(O)c2)oc2cc(O)cc(O)c12` [Myricetin]: the TIelastase in series [1] came out at 0.23. This compound had a TIsuperoxide in series [2] of 0.58.
